Source: patent US20120148685A1, “METHODS AND COMPOSITIONS FOR TREATING INSULIN RESISTANCE, DIABETES MELLITUS TYPE 2, METABOLIC SYNDROME AND RELATED DISORDERS” (Engergy4Life AG, priority 2009, published 2012)
For at least one compound, name, drawing or mass did not settle the structure.

Experiments:
[1] = Non-esterified fatty acids (NEFA) in plasma; assay type: in vivo, Zucker rats; conditions: within the obese rats, in words, P<0.05
Protocol: (§1) A total of 60 male, 8-10 week old, obese (fa/fa) Zucker rats (Crl:ZUC-Leprfa; Charles River, France) with an initial body weight of 358±24 (mean±SD) g were randomly assigned to five groups of twelve rats each. In addition, 12 male, 8-10 week old, heterozygous lean (fa/+) Zucker rats with an initial body weight of 271±10 g were used as a lean control group. All rats were kept individually in Macrolon cages in a room maintained at 22±1° C. and 50-60% relative humidity with lighting from 06.00 to 18.00 hours. All experimental procedures described followed established guidelines for the care and handling of laboratory animals and were approved by the local Animal Care and Use Committee.
(§2) The rats were fed semi-purified diets which were composed according to the recommendations of the American Institute of Nutrition (AIN)-93G. Five different diets were used differing in their supplementation. […] Diets were prepared by mixing the dry components and subsequent pelleting with a standard pelleting device (Kahl Laborpressanlage Typ 14-175; Reinbek, Germany). Feed was administered ad libitum, and feed intake was recorded weekly. Experimental diets were fed for 4 weeks. Water was available ad libitum from nipple drinkers during the whole experiment. […]
NEFA concentrations in plasma were determined using the NEFA kit from Wako Chemicals (Neuss, Germany).

[2] = Fasting glucose concentration in plasma; assay type: in vivo, Zucker rats; conditions: within the obese rats, in words, P<0.05 where different
Protocol: as §1, §2
Glucose concentration in plasma was determined by an enzymatic reagent kit from Analyticon Biotechnologies (Lichtenfels, Germany).

[3] = Feed intake, body weight development and feed conversion ratio of Zucker rats fed supplemented diets; assay type: in vivo; conditions: within the obese rats, in words, P<0.05 where different
Source text: Zucker rats are an established model of human early-onset, hyperplastic-hypertrophic obesity and insulin resistance as well as human non-insulin dependent diabetes mellitus.
as §1
as §2, with “weeks.” for “weeks. Water was available ad libitum from nipple drinkers during the whole experiment.”

[4] = tested on: fatty acid binding protein (FABP); assay: Relative mRNA concentration in liver, fatty acid uptake: FABP; assay type: in vivo, Zucker rats; conditions: in words, P<0.05 where different
Protocol: (§3) All rats were kept individually in Macrolon cages in a room maintained at 22±1° C. and 50-60% relative humidity with lighting from 06.00 to 18.00 hours. All experimental procedures described followed established guidelines for the care and handling of laboratory animals and were approved by the local Animal Care and Use Committee.
(§4) Five different diets were used differing in their supplementation. […] Feed was administered ad libitum, and feed intake was recorded weekly. Experimental diets were fed for 4 weeks. Water was available ad libitum from nipple drinkers during the whole experiment.

[5] = tested on: fatty acid synthase (FAS); assay: Relative mRNA concentration in liver, lipogenesis: FAS; assay type: in vivo, Zucker rats; conditions: in words
Protocol: as §3, §4

[6] = tested on: sterol regulatory element-binding protein (SREBP)-1c; assay: Relative mRNA concentration in liver, lipogenesis: SREBP-1c; assay type: in vivo, Zucker rats; conditions: within the obese rats, in words, P<0.05 where different
Protocol: as §3, §4

leptin = assay: Leptin in plasma (rat ELISA); assay type: in vivo, Zucker rats; conditions: within the obese rats, in words, P<0.05 where different
Protocol: as §1
as §2, with “weekly.” for “weekly. Experimental diets were fed for 4 weeks. Water was available ad libitum from nipple drinkers during the whole experiment.”
Concentrations of leptin in plasma was determined by rat ELISA kits from BioVendor (Heidelberg, Germany). Concentration of high molecular weight adiponectin was determined by a rat ELISA kit from Shibayagi (Ishihara, Shibukawa, Gunma, Japan).

[7] = Plasma and lipoprotein lipid concentrations (triacylglycerol, cholesterol; enzymatic kits); assay type: in vivo, Zucker rats; conditions: within the obese rats, in words
Protocol: as §1
The rats were fed semi-purified diets which were composed according to the recommendations of the American Institute of Nutrition (AIN)-93G. Five different diets were used differing in their supplementation. […] Diets were prepared by mixing the dry components and subsequent pelleting with a standard pelleting device (Kahl Laborpressanlage Typ 14-175; Reinbek, Germany). Feed was administered ad libitum, and feed intake was recorded weekly. Experimental diets were fed for 4 weeks. Water was available ad libitum from nipple drinkers during the whole experiment.
The rats were decapitated under CO2 anesthesia in the fasted state. Whole blood was collected into EDTA polyethylene tubes (Sarstedt, Nürnbrecht, Germany). Plasma was separated from whole blood by centrifugation (1,100×g; 10 min) at 4° C. Lipoproteins [VLDL, LDL and high-density lipoproteins (HDL)] were separated by step-wise ultracentrifugation (900,000×g, 1.5 h, 4° C.; Mikro-Ultrazentrifuge, Sorvall Products, Bad Homburg, Germany). All samples were stored at −20° C. pending analysis.
Triacylglycerol and cholesterol concentrations in plasma and lipoproteins were determined using enzymatic reagent kits from Biocon (Vöhl-Marienhagen, Germany).

CC/C=C\C/C=C\C/C=C\C/C=C\C/C=C\C/C=C\CCC(=O)O [DHA, docosahexaenoic acid]
NEFA concentrations in plasma compared with the obese control group [1]: lower | Fasting glucose concentration compared with the obese control group [2]: did not differ | Daily feed intake compared with the obese control group [3]: did not differ | Relative mRNA concentration of FABP in the liver compared with the other groups [4]: did not differ | Gene expression of fatty acid synthase ([5]; conclusions, liver of obese diabetic rats): lowered | Relative mRNA concentration of FAS in the liver compared with the obese control group ([5]; within the obese rats, P<0.05 where different): did not differ | Relative mRNA concentration of SREBP-1c in the liver compared with the obese control group [6]: did not differ | Leptin concentrations in plasma compared with the obese control group (leptin): higher | TAG concentration in plasma compared with the niacin+DHA+carnitine group ([7]; P<0.05): lower | TAG concentrations in plasma compared with the control group ([7]; P<0.05): lower | Cholesterol in the VLDL+LDL fraction compared with the obese control group ([7]; P<0.05 where different): higher | TAG concentration in the VLDL+LDL fraction compared with the obese control group ([7]; P<0.05 where different): did not differ
